# Laboratory results published in paper PMC8200294.
# Amino acid sequences for entries named in this document (tags omitted). A change or cut given only in a name is not applied to a line headed by its entry.
# UniProt P19022: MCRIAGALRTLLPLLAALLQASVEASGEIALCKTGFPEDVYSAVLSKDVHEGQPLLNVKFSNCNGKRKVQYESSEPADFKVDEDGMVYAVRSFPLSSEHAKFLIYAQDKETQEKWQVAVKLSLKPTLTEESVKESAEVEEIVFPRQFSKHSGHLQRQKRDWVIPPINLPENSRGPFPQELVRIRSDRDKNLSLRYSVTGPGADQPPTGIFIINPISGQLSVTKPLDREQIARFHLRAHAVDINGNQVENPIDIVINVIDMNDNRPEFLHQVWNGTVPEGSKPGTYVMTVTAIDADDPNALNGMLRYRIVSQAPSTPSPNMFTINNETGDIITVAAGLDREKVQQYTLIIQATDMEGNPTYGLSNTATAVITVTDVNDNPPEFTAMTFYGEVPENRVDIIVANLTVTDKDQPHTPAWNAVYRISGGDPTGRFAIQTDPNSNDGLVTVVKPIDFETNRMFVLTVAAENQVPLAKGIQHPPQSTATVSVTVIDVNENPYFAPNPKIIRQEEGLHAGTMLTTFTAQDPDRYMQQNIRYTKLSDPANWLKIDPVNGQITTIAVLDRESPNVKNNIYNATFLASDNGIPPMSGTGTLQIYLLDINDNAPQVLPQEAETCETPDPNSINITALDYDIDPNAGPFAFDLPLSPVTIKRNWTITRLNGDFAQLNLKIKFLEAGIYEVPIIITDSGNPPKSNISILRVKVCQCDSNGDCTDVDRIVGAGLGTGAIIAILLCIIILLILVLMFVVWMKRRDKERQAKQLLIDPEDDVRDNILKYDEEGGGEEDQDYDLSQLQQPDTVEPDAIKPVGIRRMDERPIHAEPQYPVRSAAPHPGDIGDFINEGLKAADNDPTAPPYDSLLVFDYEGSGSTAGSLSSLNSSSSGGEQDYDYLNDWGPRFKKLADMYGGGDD
# UniProt P17302: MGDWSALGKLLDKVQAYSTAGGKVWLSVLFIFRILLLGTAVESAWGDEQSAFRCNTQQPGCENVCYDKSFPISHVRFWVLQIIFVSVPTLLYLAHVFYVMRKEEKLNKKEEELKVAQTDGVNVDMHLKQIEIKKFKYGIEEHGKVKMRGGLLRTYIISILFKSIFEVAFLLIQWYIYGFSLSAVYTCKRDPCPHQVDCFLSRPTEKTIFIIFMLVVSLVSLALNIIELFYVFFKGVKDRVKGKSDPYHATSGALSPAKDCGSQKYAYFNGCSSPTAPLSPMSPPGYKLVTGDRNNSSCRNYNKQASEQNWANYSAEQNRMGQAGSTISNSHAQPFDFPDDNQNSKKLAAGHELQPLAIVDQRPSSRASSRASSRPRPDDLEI
# Target: CDH2-Flag (from pCMV2-CDH2-Flag) (UniProt P19022)
# Experiment: co-IP; lysates of MDA-MB-231 transfected with pCMV2-CDH2 Flag and pcDNA 3.2-Cx43-HA; IP with anti-Flag or IgG; blot with anti-Flag or anti-HA
substance,measurement,value
Cx43-HA (from pcDNA 3.2-Cx43-HA) (from UniProt P17302 1-382),binding,binds

# No constants are given. Whether binding was seen depends on the method and setting. Binding seen in cells or lysates may run through a third protein. Binding calls can cover weak binding; strength is not graded here.
